Laboratory results reported in paper PMC11568366.
Results are given in words; binding and its absence hold for the method and conditions named. For some assays here: Binding seen in cells or lysates may run through a third protein. Some entries that bind do so weakly or less than the wild type.

Protein sequences, listed by entry. Tags and fused reporters are not part of them. Lines headed by an entry give the natural chain unless they say otherwise; changes in a name come on top. Chains listed by the source or under a name are the forms on record and can include a tag or linker. Residues count along the entry.
endogenous SET/TAF-Iβ of MEF cells (mouse (endogenous in MEF)) (Q9EQU5, form named): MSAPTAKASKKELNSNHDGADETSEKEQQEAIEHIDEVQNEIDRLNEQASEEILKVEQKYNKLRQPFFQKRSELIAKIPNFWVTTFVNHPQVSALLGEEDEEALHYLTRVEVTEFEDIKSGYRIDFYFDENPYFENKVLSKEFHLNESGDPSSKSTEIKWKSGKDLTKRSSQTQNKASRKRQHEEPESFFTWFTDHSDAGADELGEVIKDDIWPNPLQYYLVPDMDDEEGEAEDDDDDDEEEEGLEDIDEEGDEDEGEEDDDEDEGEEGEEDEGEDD
SET/template-activating factor Iβ (SET/TAF-Iβ), recombinant (Q01105, form named): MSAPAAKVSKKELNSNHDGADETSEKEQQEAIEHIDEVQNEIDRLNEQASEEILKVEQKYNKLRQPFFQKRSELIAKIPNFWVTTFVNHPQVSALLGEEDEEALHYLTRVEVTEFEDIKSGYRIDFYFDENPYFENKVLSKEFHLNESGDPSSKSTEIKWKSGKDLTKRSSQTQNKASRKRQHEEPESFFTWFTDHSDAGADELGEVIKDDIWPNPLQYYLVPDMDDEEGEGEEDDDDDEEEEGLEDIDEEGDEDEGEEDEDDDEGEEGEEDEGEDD
UniProt P02769, residues 25-607: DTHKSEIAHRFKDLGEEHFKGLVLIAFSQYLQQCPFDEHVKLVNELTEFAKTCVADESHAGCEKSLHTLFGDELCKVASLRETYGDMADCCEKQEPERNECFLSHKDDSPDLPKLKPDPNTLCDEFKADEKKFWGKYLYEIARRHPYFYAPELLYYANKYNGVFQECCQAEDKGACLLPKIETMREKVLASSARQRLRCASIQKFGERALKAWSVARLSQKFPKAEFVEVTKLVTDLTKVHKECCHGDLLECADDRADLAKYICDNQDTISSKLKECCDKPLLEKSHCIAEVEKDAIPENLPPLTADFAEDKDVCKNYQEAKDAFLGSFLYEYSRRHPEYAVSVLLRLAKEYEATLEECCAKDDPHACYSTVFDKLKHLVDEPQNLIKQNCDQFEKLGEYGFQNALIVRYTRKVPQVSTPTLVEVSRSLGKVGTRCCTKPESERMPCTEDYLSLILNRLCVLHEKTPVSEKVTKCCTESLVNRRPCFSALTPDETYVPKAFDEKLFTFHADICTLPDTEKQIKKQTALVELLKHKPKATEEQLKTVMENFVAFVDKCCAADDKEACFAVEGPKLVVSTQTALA
wild-type cytochrome c (reduced) (P99999, residues 2-105): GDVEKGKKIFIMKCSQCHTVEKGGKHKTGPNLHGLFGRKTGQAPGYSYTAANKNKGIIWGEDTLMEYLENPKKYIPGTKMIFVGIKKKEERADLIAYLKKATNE
Myc-tagged Y48D human cytochrome c expressed in Cc-/- MEF cells (P99999, form named): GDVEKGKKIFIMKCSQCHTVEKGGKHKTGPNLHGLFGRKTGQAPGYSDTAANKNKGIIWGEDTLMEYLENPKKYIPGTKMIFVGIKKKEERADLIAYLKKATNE

Columns and labels:
[1] = target: endogenous SET/TAF-Iβ of MEF cells (mouse (endogenous in MEF)) (UniProt Q9EQU5); experiment: proximity ligation; in situ PLA in fixed Cc-/- MEF transfected with Myc-tagged Cc, mouse anti-Myc and rabbit anti-SET antibodies; basal DNA damage
[2] = target: SET/template-activating factor Iβ (SET/TAF-Iβ), recombinant (UniProt Q01105); experiment: NMR titration; competition: 13 μM reduced WT Cc with 3.5 μM SET/TAF-Iβ, 5-40 μg calf thymus histone mix added, recovery of the Met80-εCH3 signal; 10 mM sodium phosphate pH 7.4, 298 K; both purified
[3] = target: SET/template-activating factor Iβ (SET/TAF-Iβ), recombinant (UniProt Q01105); experiment: NMR titration; 1D 1H NMR of the Met80-εCH3 signal of 13 μM reduced Cc with 1.75 and 3.5 μM SET/TAF-Iβ, or 3.5 μM BSA as control; 10 mM sodium phosphate pH 7.4, 5 equivalents of sodium ascorbate, 298 K; both purified
[4] = target: BSA (bovine (from the name BSA)) (UniProt P02769); experiment: as above

| binding [2] | binding [3] | binding [4] | Substance | binding [1] |
| --- | --- | --- | --- | --- |
| – | – | – | Myc-tagged Y48D human cytochrome c expressed in Cc-/- MEF cells (from UniProt P99999 2-105) | binds |
| – | – | – | Myc-tagged wild-type human cytochrome c expressed in Cc-/- MEF cells (from UniProt P99999 2-105) | binds |
| binds | binds | no binding (tested: 3.5 μM BSA) | wild-type cytochrome c (reduced) (from UniProt P99999 2-105) | – |
